# Percent effect of library compounds

From ChEMBL document CHEMBL3988442, “University of Dundee, Small-Polar-MMV Screening Library” (2021).

Each number is a percent effect as filed. The controls that fix the scale are not given in the record; negative values are as filed. Compounds were drawn at random from those tested, without regard to their results. Two or more numbers in one place are separate tests of the same structure; such repeats can differ widely.

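Whole-cell growth test on Mycobacterium tuberculosis, read after 3 days in glucose-containing 7H9 medium; the read-out is not stated. Tested at 50 µM. The record gives no direction; compounds that gave an IC50 in retests scored well above the rest, so higher reads as more growth inhibition. Size under these conditions: about 69,000 compounds, about 760 of them at 50% or above in at least one test.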

SMILES | Percent Effect
O=C(O)C(F)(F)F.[H][C@@]12COC[C@]1(COCC)CN(Cc1cccc(OC)c1)C2 | 3.2
COc1ccc(OC)c(-n2nnnc2SCC2CCCCO2)c1 (stereo not given) | -1.41 & 2.594
CCc1ccc(CN(C)Cc2cnc(S(=O)(=O)CC)n2CCOC)cc1 | 8.501
CCc1noc(CNc2cc3c(cc2Cl)OCCCO3)n1 | 38.11 & 25.23
CCC[C@H]1CN(Cc2cc(C#N)n(C)c2C)C[C@@H]1NS(=O)(=O)CC | 15.83
Cc1cc(NC(=O)C(C)Nc2cccc(COCc3ccco3)c2)on1 (stereo not given) | 25.02
Cc1cc(C)n(CC2CN(CCOc3cccc(F)c3)CCO2)n1 (stereo not given) | 37.18
Cc1[nH]ncc1C(=O)N1CCCC(c2cc(C(F)(F)F)[nH]n2)C1 (stereo not given) | -1.08
Cn1c(=O)[nH]c(=O)c2cc(C(=O)N3CCCC3C3CCCC3)cnc21 (stereo not given) | 3.04
[H][C@@]12CCN(C3CCCC3)C[C@]1(C(=O)N1CCOCC1)CCO2 | 6.474
Cc1noc(C)c1C(=O)N(C)C(C)c1cccnc1 (stereo not given) | 6.867 & 2.867
CCn1nc(C)cc1C(=O)NCc1nc(C)cc(C)n1 | 18.24
O=C(O)C(F)(F)F.O=C(O)C(F)(F)F.[H][C@@]12CCN(Cc3cnn(C)c3)[C@]1([H])CC[C@H](C(=O)NC1CC1)O2 | -5.4 & -2.355
Cc1cccc(CNCCOc2ccc(S(C)(=O)=O)cc2)c1 | 20.94
Cc1noc(CNc2ccccc2N2CCCCC2)n1 | 40.25
N#CCCN(CC1CC1)S(=O)(=O)c1cccc(Cl)c1 | 12.52 & -36.02
CC(=O)Nc1ccc(CN2CCc3[nH]cnc3C2c2nccn2C)cc1 (stereo not given) | -3.162 & -11.06
CC(C)c1nnsc1CNC(=O)C1CCCN(C(=O)N(C)C)C1 (stereo not given) | 4.505
O=C(CSC1=NS(=O)(=O)c2cc(F)ccc2N1)c1ccc(Cl)cc1 | 3.111
Cc1nc(C)n(CC(C)C(=O)N2CCCN(C3CCCC3)CC2)n1 (stereo not given) | -7.933
Cc1nn(-c2ccccc2Cl)c(C)c1CCC(=O)O | -4.728
CC(C)S(=O)(=O)NCC1CCCN(C(=O)c2cccnc2)C1 (stereo not given) | -23.82 & -3.987
Cc1ccc(-c2nnc(CN3CCOC(Cn4cccn4)C3)o2)cc1 (stereo not given) | 2.346
CC(C(N)=O)N1CCc2onc(-c3cccc(F)c3)c2C1 (stereo not given) | -2.578 & -9.876
COc1ccc(C(C(=O)O)N(C)Cc2c(C)nn(C)c2C)c(C)c1 (stereo not given) | -20.5
Cc1ncc(-c2nc3cc(S(=O)(=O)N4CCCC4)ccc3n2C)cn1 | 7.023 & -2.413
CCc1c(C)sc2nc3n(CCN4CCOCC4)nc(SC)n3c(=O)c12 | 0.7501
COc1cccc(C(=O)NCC2CCN(C(=O)c3ccoc3)CC2)c1 | -0.9318
Cn1cc(CN2CCC(c3cc(CCO)[nH]n3)C2)cn1 (stereo not given) | -0.2854
CCn1c(C2CCCN(Cc3ccc4ccccc4n3)C2)nn(C)c1=O (stereo not given) | 6.664 & -3.512
COc1cc(C(=O)NS(=O)(=O)c2cccc(C#N)c2)cc(Cl)c1OC | 28.39
Cn1cccc1CN1CCC2(CC1)CN(c1ncccn1)CCO2.O=C(O)C(F)(F)F | -0.2691 & 1.757
CCN1CCOCC12CCN(C(=O)C1CCC1)CC2.O=C(O)C(F)(F)F | -30.51
Cc1nn(C)cc1-c1cc(C(F)(F)F)nc(NC2CCCCC2)n1 | 21.47 & 33.39
CCOc1ccc(Cl)c(C(=O)N2CCCSCC2)n1 | -8.875
[H][C@@]12CCCN1CCCN(c1nc(-c3ccco3)nc3c1CCNCC3)C2 | 26.88
COC(=O)C1CCN(C(=O)Cn2ccc(-c3ccc(F)cc3)n2)CC1 | 17.38
O=C(NCCn1cccc1)C1CCN(C2CCCCC2)CC1 | -7.313
Cc1ccc(C(CNC(=O)Nc2cn[nH]c2)N2CCOCC2)o1 (stereo not given) | -2.354
CC(C)CCC(=O)N1CCC2(CC1)OCCO2 | 23.73
CCOc1ccc(S(=O)(=O)NC(=O)CCC2CCCO2)cc1 (stereo not given) | 20.79
CCc1cc(=O)n(CC(=O)N2CCC(C)CC2)c(-c2cccc(F)c2)n1 | 9.464
Cc1cc(NC(=O)N2CCOC(C(N)=O)C2)ccc1Br (stereo not given) | 20.26
COCCN1CCC(C(=O)N(C)Cc2cccc(Cl)c2)C1 (stereo not given) | -9.289 & -36.31
Cl.O=C1CC2(CCCNC2)C(=O)N1Cc1ccc(F)cc1 (stereo not given) | -0.6028
CCS(=O)(=O)N1CCc2ccc(NC(=O)NCc3ccccc3)cc21 | 8.594
CC(C)OCCN(Cc1cccc(O)c1)C1CCC(O)CC1 (stereo not given) | 6.589
Cc1ccc(-c2nc(CN3CCn4c(C)nnc4C3)cs2)o1 | -12.43
CCC1(CC)Cc2ccccc2-c2nc(CN(C)C)nc(O)c21 | 20.03 & 0.2412
c1cc(-c2c[nH]c([C@@H]3COCCN3Cc3ncc[nH]3)n2)ccn1 | 19.79 & 1.458
Cc1cc(CN2CCN(CC(O)C(C)(C)C)CC2)no1 (stereo not given) | 15.54
Cc1cc(C(=O)NC2CCN(C(=O)Nc3cccnc3)CC2)c(C)o1 | 13.78
O=C(O)C(c1ccc2[nH]ccc2c1)N1CCN(c2cnccn2)CC1 (stereo not given) | -2.43
C1CCCN(c2nc(C3CC3)ns2)CC1 | -3.93 & -10.21
Cc1nc(NCc2nnc(C)n2C)c2c(CC(C)C)csc2n1 | 0.1392
OC1CCCN(Cc2c(-c3ccco3)[nH]c3ncccc23)C1 (stereo not given) | 28.47
CC(C)N(C)Cc1cnc2n1CCN(Cc1cccc(C#N)c1)C2 | 7.087
Cc1ccnc(N2CCN(Cc3ccccc3)CC(O)C2)c1 (stereo not given) | 21.34
Cc1cc(C(=O)NCCN2CCCc3ccccc32)[nH]n1 | -43.25
Cc1nc(N)sc1C(=O)N1Cc2ccccc2OC2(CCOCC2)C1 | -7.152
CCN1CC2(CCN(C(=O)C3CSC(C)(C)C(=O)N3)CC2)CC1=O (stereo not given) | 35.51

For reference, 5 entries once more:

* [H][C@@]12CCCN1CCCN(c1nc(-c3ccco3)nc3c1CCNCC3)C2 | 26.88%
* CCc1noc(CNc2cc3c(cc2Cl)OCCCO3)n1 | 38.11% & 25.23%
* Cc1cc(NC(=O)N2CCOC(C(N)=O)C2)ccc1Br (stereo not given) | 20.26%
* COC(=O)C1CCN(C(=O)Cn2ccc(-c3ccc(F)cc3)n2)CC1 | 17.38%
* Cc1ncc(-c2nc3cc(S(=O)(=O)N4CCCC4)ccc3n2C)cn1 | 7.023% & -2.413%